{"source": "PubChem BioAssay AID248", "about": "(DTP/NCI, 2004)", "system": "L1210 leukemia ip in BDF1 mice, survival T/C", "experiment": "NCI In Vivo Anticancer Drug Screen. Data for tumor model L1210 Leukemia (intraperitoneal) in B6D2F1 (BDF1) mice", "details": "T/C endpoint: mean survival time, higher T/C = longer survival", "key": {"[1]": {"details": "dose: 100.0 mg/kg/injection, schedule: Q01DX001 (ip), vehicle: saline"}, "[2]": {"details": "dose: 200.0 mg/kg/injection, schedule: Q01DX001 (ip), vehicle: saline"}, "[3]": {"details": "dose: 400.0 mg/kg/injection, schedule: Q01DX001 (ip), vehicle: saline"}, "[4]": {"details": "dose: 400.0 mg/kg/injection, schedule: Q04DX003 (ip), vehicle: saline with Tween-80"}, "[5]": {"details": "dose: 400.0 mg/kg/injection, schedule: Q04DX003 (ip), vehicle: Klucel (hydroxypropylcellulose) (HPC)"}, "[6]": {"details": "dose: 200.0 mg/kg/injection, schedule: Q01DX001 (ip), vehicle: Klucel (hydroxypropylcellulose) (HPC)"}, "[7]": {"details": "dose: 400.0 mg/kg/injection, schedule: Q01DX001 (ip), vehicle: Klucel (hydroxypropylcellulose) (HPC)"}}, "note": "The list is a part of this screen's results and no random one: it is rich in T/C values a quarter to a half above the control, in often repeated tests (any T/C) and in doses without a T/C. Other doses and runs of a compound stand elsewhere. T/C gives the treated animals as a percentage of the vehicle group. Some doses have a count of surviving animals in place of a T/C: the source holds a T/C of zero for them, seemingly a mark for toxic or unscored doses. Some doses without a T/C left all or most animals alive at the check, yet need not have been tolerated: survival well below the control is almost never listed, so the zero probably covers shortened survival too. Survivors were counted at the toxicity check, usually on the fifth day, unless a day is given; later deaths do not show. Schedules are NCI's codes, taken here to give the interval after Q, in days (D) or hours (H), and the number of doses after X. Some doses were run more than once; the values are given in rising order. Some schedules carry Z or #; the key to these is not given. Where survival is the endpoint, this PubChem deposit counts one and a half times the control or more as active, and values a quarter to a half above the control carry no call in these data; other NCI protocols may use other cut-offs. Some T/C values carry the count of animals alive at the toxicity check (mostly the fifth day); without a count, all were alive then.", "data": [{"smiles": "CCC[CH2][Sn]1([CH2]CCC)[O]C(=O)C2C(C(=O)[O]1)C1(Cl)C(Cl)=C(Cl)C2(Cl)C1(Cl)Cl", "note": "(stereo not drawn)", "values": [{"measurement": "T/C", "setting": "[1]", "result": "125 % of control"}, {"measurement": "survivor count", "setting": "dose: 150.0 mg/kg/injection, schedule: Q01DX001 (ip), vehicle: saline", "result": "1 of 6"}, {"measurement": "survivor count", "setting": "[2]", "result": "2 of 4"}, {"measurement": "survivor count", "setting": "[3]", "result": "0 of 4"}]}, {"smiles": "OCC(I)C(CO)[n+]1ccccc1", "note": "(stereo not drawn)", "values": [{"measurement": "survivor count", "setting": "dose: 100.0 mg/kg/injection, schedule: Q04DX003 (ip), vehicle: saline", "result": "0 of 6"}, {"measurement": "survivor count", "setting": "dose: 200.0 mg/kg/injection, schedule: Q04DX003 (ip), vehicle: saline", "result": "0 of 6"}, {"measurement": "survivor count", "setting": "dose: 400.0 mg/kg/injection, schedule: Q04DX003 (ip), vehicle: saline", "result": "0 of 6"}]}, {"smiles": "Cc1ccc(C(=O)C2CC2)cc1C", "values": [{"measurement": "survivor count", "setting": "[4]", "result": "2 of 6"}]}, {"smiles": "NC(=O)OCCI", "values": [{"measurement": "T/C", "setting": "dose: 100.0 mg/kg/injection, schedule: Q01DX009 (ip), vehicle: saline", "result": "132 % of control"}, {"measurement": "survivor count", "setting": "dose: 200.0 mg/kg/injection, schedule: Q01DX009 (ip), vehicle: saline", "result": "2 of 6"}]}, {"smiles": "COC(=O)N1C2CCC(C2=C(C)C)N1C(=O)OC", "values": [{"measurement": "survivor count", "setting": "[5]", "result": "6 of 6"}]}, {"smiles": "O=C(O)c1ccccc1Br.[Ni]", "values": [{"measurement": "survivor count", "setting": "dose: 12.5 mg/kg/injection, schedule: Q01DX009 (ip), vehicle: Klucel (hydroxypropylcellulose) (HPC)", "result": "6 of 6"}, {"measurement": "survivor count", "setting": "dose: 50.0 mg/kg/injection, schedule: Q01DX009 (ip), vehicle: Klucel (hydroxypropylcellulose) (HPC)", "result": "6 of 6"}, {"measurement": "survivor count", "setting": "dose: 100.0 mg/kg/injection, schedule: Q01DX001 (ip), vehicle: Klucel (hydroxypropylcellulose) (HPC)", "result": "2 of 6"}, {"measurement": "survivor count", "setting": "[6]", "result": "0 of 6"}, {"measurement": "survivor count", "setting": "[7]", "result": "0 of 6"}]}, {"smiles": "Cc1n(Cc2ccccc2)cc[n+]1C", "values": [{"measurement": "survivor count", "setting": "dose: 50.0 mg/kg/injection, schedule: Q01DX009 (ip), vehicle: saline", "result": "1 of 3"}, {"measurement": "survivor count", "setting": "dose: 50.0 mg/kg/injection, schedule: Q04DX002 (ip), vehicle: saline", "result": "1 of 3 and 3 of 6"}, {"measurement": "survivor count", "setting": "dose: 100.0 mg/kg/injection, schedule: Q04DX002 (ip), vehicle: saline", "result": "0 of 3 and 1 of 6"}, {"measurement": "survivor count", "setting": "dose: 200.0 mg/kg/injection, schedule: Q04DX002 (ip), vehicle: saline", "result": "0 of 3 and 0 of 6"}, {"measurement": "survivor count", "setting": "dose: 400.0 mg/kg/injection, schedule: Q04DX002 (ip), vehicle: saline", "result": "0 of 3 and 0 of 6"}]}, {"smiles": "C=CC(=O)[O][Pb]([CH2]C)([CH2]C)[CH2]C", "values": [{"measurement": "survivor count", "setting": "dose: 25.0 mg/kg/injection, schedule: Q04DX002 (ip), vehicle: Klucel (hydroxypropylcellulose) (HPC)", "result": "0 of 3"}, {"measurement": "survivor count", "setting": "dose: 50.0 mg/kg/injection, schedule: Q04DX002 (ip), vehicle: Klucel (hydroxypropylcellulose) (HPC)", "result": "0 of 3"}, {"measurement": "survivor count", "setting": "dose: 100.0 mg/kg/injection, schedule: Q04DX002 (ip), vehicle: Klucel (hydroxypropylcellulose) (HPC)", "result": "0 of 3"}, {"measurement": "survivor count", "setting": "dose: 200.0 mg/kg/injection, schedule: Q04DX002 (ip), vehicle: Klucel (hydroxypropylcellulose) (HPC)", "result": "0 of 3"}, {"measurement": "survivor count", "setting": "dose: 400.0 mg/kg/injection, schedule: Q04DX002 (ip), vehicle: Klucel (hydroxypropylcellulose) (HPC)", "result": "0 of 3"}]}, {"smiles": "O=C1NC(=O)C(F)C(O)N1", "note": "(stereo not drawn)", "values": [{"measurement": "survivor count", "setting": "[1]", "result": "3 of 6"}, {"measurement": "survivor count", "setting": "[2]", "result": "0 of 6"}, {"measurement": "survivor count", "setting": "[3]", "result": "0 of 6"}]}, {"smiles": "CC(C)(O)/C=C/C(=O)[C@](C)(O)[C@H]1[C@H](O)C[C@@]2(C)[C@@H]3CC=C4[C@@H](C[C@H](O)C(=O)C4(C)C)[C@]3(C)C(=O)C[C@]12C", "values": [{"measurement": "survivor count", "setting": "dose: 2.0 mg/kg/injection, schedule: Q01DX001 (sc), vehicle: steroid suspending solution", "result": "0 of 4"}, {"measurement": "survivor count", "setting": "dose: 4.0 mg/kg/injection, schedule: Q01DX001 (sc), vehicle: steroid suspending solution", "result": "0 of 4"}, {"measurement": "survivor count", "setting": "dose: 8.0 mg/kg/injection, schedule: Q01DX001 (sc), vehicle: steroid suspending solution", "result": "0 of 4"}]}, {"smiles": "C=C(Cl)COC(=O)C(C)O", "note": "(stereo not drawn)", "values": [{"measurement": "survivor count", "setting": "[6]", "result": "0 of 6"}, {"measurement": "survivor count", "setting": "[7]", "result": "0 of 6"}]}, {"smiles": "CN(N=O)C(=O)NCCCCCNC(=O)N(C)N=O", "values": [{"measurement": "T/C", "setting": "dose: 100.0 mg/kg/injection, schedule: Q01DX Z (ip), vehicle: carboxymethylcellulose (CMC)", "result": "136 % of control"}, {"measurement": "T/C", "setting": "dose: 125.0 mg/kg/injection, schedule: Q01DX Z (ip), vehicle: carboxymethylcellulose (CMC)", "result": "141 % of control"}, {"measurement": "T/C", "setting": "dose: 420.0 mg/kg/injection, schedule: Q01DX001 (ip), vehicle: carboxymethylcellulose (CMC)", "result": "134 % of control"}, {"measurement": "T/C", "setting": "dose: 840.0 mg/kg/injection, schedule: Q01DX001 (ip), vehicle: carboxymethylcellulose (CMC)", "result": "142 % of control [7 of 10 alive]"}, {"measurement": "survivor count", "setting": "dose: 1680.0 mg/kg/injection, schedule: Q01DX001 (ip), vehicle: carboxymethylcellulose (CMC)", "result": "0 of 10"}, {"measurement": "survivor count", "setting": "dose: 3360.0 mg/kg/injection, schedule: Q01DX001 (ip), vehicle: carboxymethylcellulose (CMC)", "result": "0 of 10"}]}, {"smiles": "CN(N=O)C(=O)Nc1ccc(C(=O)O)cc1", "values": [{"measurement": "T/C", "setting": "dose: 60.0 mg/kg/injection, schedule: Q01DX001 (ip), vehicle: carboxymethylcellulose (CMC)", "result": "128 % of control"}, {"measurement": "T/C", "setting": "dose: 120.0 mg/kg/injection, schedule: Q01DX001 (ip), vehicle: carboxymethylcellulose (CMC)", "result": "140 % of control"}, {"measurement": "survivor count", "setting": "dose: 150.0 mg/kg/injection, schedule: Q01DX Z (ip), vehicle: carboxymethylcellulose (CMC)", "result": "0 of 6"}, {"measurement": "T/C", "setting": "dose: 240.0 mg/kg/injection, schedule: Q01DX001 (ip), vehicle: carboxymethylcellulose (CMC)", "result": "129 % of control"}, {"measurement": "survivor count", "setting": "dose: 480.0 mg/kg/injection, schedule: Q01DX001 (ip), vehicle: carboxymethylcellulose (CMC)", "result": "1 of 10"}, {"measurement": "survivor count", "setting": "dose: 960.0 mg/kg/injection, schedule: Q01DX001 (ip), vehicle: carboxymethylcellulose (CMC)", "result": "0 of 10"}]}, {"smiles": "Nc1nc2ncc(CNc3nc(C(=O)NC(CCC(=O)O)C(=O)O)cs3)nc2c(=O)[nH]1", "note": "(stereo not drawn)", "values": [{"measurement": "survivor count", "setting": "dose: 300.0 mg/kg/injection, schedule: Q01DX001 (ip), vehicle: other", "result": "0 of 6"}]}, {"smiles": "CN(C)Cc1ccncc1", "values": [{"measurement": "survivor count", "setting": "[3]", "result": "0 of 6"}]}, {"smiles": "NCC(=O)OC(c1ccccc1)(c1ccccc1)c1ccccc1", "values": [{"measurement": "survivor count", "setting": "dose: 400.0 mg/kg/injection, schedule: Q01DX009 (ip), vehicle: Klucel (hydroxypropylcellulose) (HPC)", "result": "2 of 6"}]}, {"smiles": "Cc1ccc(/C=C2\\CCC3C(=O)CCCC3C2=O)cc1", "note": "(stereo not drawn)", "values": [{"measurement": "survivor count", "setting": "[3]", "result": "6 of 6"}]}, {"smiles": "COc1cccc(OC)c1C#N", "values": [{"measurement": "survivor count", "setting": "[5]", "result": "6 of 6"}]}, {"smiles": "CS(=O)(=O)OCCN(CCOS(C)(=O)=O)c1ccc(C=Nc2ccc(-c3csc(-c4ccc(Br)cc4)n3)cc2)cc1", "values": [{"measurement": "survivor count", "setting": "dose: 100.0 mg/kg/injection, schedule: Q01DX009 (ip), vehicle: Klucel (hydroxypropylcellulose) (HPC)", "result": "6 of 6"}]}, {"smiles": "CC(=O)OC1CCC(OC(C)=O)C(C#N)(C#N)C1(C#N)C#N", "note": "(stereo not drawn)", "values": [{"measurement": "survivor count", "setting": "[4]", "result": "2 of 6"}]}]}
